PubChem BioAssay AID686937, Drosophila RNAi Screening Center – 2013

- Test: 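Knock-downs that reduce output of a secreted reporter enzyme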 (primary screen)
- Cell system: Drosophila S2 cells expressing secreted horseradish peroxidase
- Knock-down reagent: long dsRNA against Drosophila genes
- Time to read-out: about 5.5 days (5 days dsRNA, then 12 h reporter induction)
- Conditions: reporter expression induced after 5 days of dsRNA, read 12 h later; inducer not stated
- Detection: 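After 5 days of dsRNA and 12 h of reporter induction, medium peroxidase read by chemiluminescence and scored as per-plate z-score; higher values mean more reporter released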
- Scale: z-score: higher = more reporter secreted into medium
In all, the deposit lists about 23,000 reagents; below is an unselected part of those that have a named target and a result. 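Reduced-secretion tags in replicate 1 do not always agree with the z-scores; no criterion for assigning the tags was given.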 Names joined by + are all predicted targets of the reagent. Further read-outs or replicates are left out here. Not given: the amount of reagent.

GstD2 (GeneID 48335) [DRSC16684]: z-score, replicate 1 = 0.18
Roc1b + Cdc5 [DRSC08687]: z-score, replicate 1 = -0.8
CG6421 (GeneID 46813) [DRSC07420]: z-score, replicate 1 = 0.61
CG43428 (GeneID 12798467) [DRSC06205]: z-score, replicate 1 = 0.29
CAH13 (GeneID 36126) [DRSC06128]: z-score, replicate 1 = 0.22
Obp22a (GeneID 246672) [DRSC00088]: z-score, replicate 1 = 0.47
CG14277 (GeneID 34129) [DRSC02380]: z-score, replicate 1 = 0.17
CG6144 (GeneID 34443) [DRSC02934]: z-score, replicate 1 = 0.58
CG2225 (GeneID 35421) [DRSC03722]: z-score, replicate 1 = 0.13
CG2225 (GeneID 35421) [DRSC03723]: z-score, replicate 1 = 0.17
c12.2 (GeneID 53434) [DRSC18751]: z-score, replicate 1 = 0.47
CG9981 (GeneID 32609) [DRSC20225]: z-score, replicate 1 = 0.22
CG10750 (GeneID 35206) [DRSC02105]: z-score, replicate 1 = 0.36
SMC6 (GeneID 42876) [DRSC15829]: z-score, replicate 1 = 0.18
CG43795 + SkpF [DRSC04120]: z-score, replicate 1 = 0.12
Rich (GeneID 40456) [DRSC11607]: z-score, replicate 1 = -0.02
CG18787 + CG18789 [DRSC02698]: z-score, replicate 1 = 1.44
GstO1 (GeneID 38975) [DRSC10688]: z-score, replicate 1 = 0.47
CR18275 + CR18166 + CG32817 [DRSC17249]: z-score, replicate 1 = 0.28
CG17650 (GeneID 33358) [DRSC00510]: z-score, replicate 1 = 0.31
Cul4 (GeneID 35780) [DRSC07243]: z-score, replicate 1 = -0.71
CG16888 (GeneID 34789) [DRSC02541]: z-score, replicate 1 = -0.03
CG34007 (GeneID 3885610) [DRSC01790]: z-score, replicate 1 = -0.06
jef (GeneID 36634) [DRSC06198]: z-score, replicate 1 = 0.54
dhd (GeneID 31444) [DRSC18761]: z-score, replicate 1 = 0.01
CG32512 (GeneID 33085) [DRSC20519]: z-score, replicate 1 = 0.45
CG32512 (GeneID 33085) [DRSC20551]: z-score, replicate 1 = -0.61
CG32512 (GeneID 33085) [DRSC21401]: z-score, replicate 1 = 1.11
CG18179 (GeneID 39124) [DRSC10303]: z-score, replicate 1 = 0.2
CG42306 + Gint3 [DRSC06934]: z-score, replicate 1 = 0.21
CG34034 (GeneID 3885584) [DRSC13506]: z-score, replicate 1 = 0.41
Ssl1 (GeneID 40509) [DRSC11634]: z-score, replicate 1 = -1.9; phenotype, replicate 1 = reduced secretion
CG14877 (GeneID 41929) [DRSC15001]: z-score, replicate 1 = 0.11
CG5455 (GeneID 43196) [DRSC15805]: z-score, replicate 1 = 0.2
Pvf1 (GeneID 32876) [DRSC20024]: z-score, replicate 1 = 0.23
fidipidine (GeneID 36808) [DRSC07618]: z-score, replicate 1 = 0.26
CG17059 (GeneID 50227) [DRSC06654]: z-score, replicate 1 = -0.03
Sirt6 (GeneID 41254) [DRSC16010]: z-score, replicate 1 = 0.29
Sec61gamma (GeneID 32968) [DRSC19570]: z-score, replicate 1 = -1.65; phenotype, replicate 1 = reduced secretion
CG8026 (GeneID 35941) [DRSC07055]: z-score, replicate 1 = 0.4
CG8026 (GeneID 35941) [DRSC07056]: z-score, replicate 1 = 0.26

6 consecutive entries already listed, for reference:
Cul4 (GeneID 35780) [DRSC07243]: z-score, replicate 1 = -0.71
CG16888 (GeneID 34789) [DRSC02541]: z-score, replicate 1 = -0.03
CG34007 (GeneID 3885610) [DRSC01790]: z-score, replicate 1 = -0.06
jef (GeneID 36634) [DRSC06198]: z-score, replicate 1 = 0.54
dhd (GeneID 31444) [DRSC18761]: z-score, replicate 1 = 0.01
CG32512 (GeneID 33085) [DRSC20519]: z-score, replicate 1 = 0.45
